Laboratory results: PMC10416611
No constants are given. Whether binding was seen depends on the method and setting. In cells and extracts the contact can be indirect. These calls come from enrichment with a bait or labelling near it, and not all partners need be listed. Blank lines part the entries; values can stand above or below the binder they belong to.

Biological target: GFP-AHL17 fusion protein (Arabidopsis thaliana) (UniProt Q9LTA2)
Assay: affinity purification with mass spectrometry; proteins extracted from 7-day-old 35S::GFP-AHL17 Arabidopsis seedlings (methods: roots), precipitated with anti-GFP antibody, mass spectrometry; WT plants as negative control

- binding: binds
B1: AHL15 (endogenous) (protein, UniProt Q9M2S3 1-310)
chain: MANPWWVGNVAIGGVESPVTSSAPSLHHRNSNNNNPPTMTRSDPRLDHDFTTNNSGSPNTQTQSQEEQNSRDEQPAVEPGSGSGSTGRRPRGRPPGSKNKPKSPVVVTKESPNSLQSHVLEIATGADVAESLNAFARRRGRGVSVLSGSGLVTNVTLRQPAASGGVVSLRGQFEILSMCGAFLPTSGSPAAAAGLTIYLAGAQGQVVGGGVAGPLIASGPVIVIAATFCNATYERLPIEEEQQQEQPLQLEDGKKQKEENDDNESGNNGNEGSMQPPMYNMPPNFIPNGHQMAQHDVYWGGPPPRAPPSY

- binding: binds
B2: AHL19 (endogenous) (protein, UniProt Q9SR17 1-315)
chain: MANPWWTGQVNLSGLETTPPGSSQLKKPDLHISMNMAMDSGHNNHHHHQEVDNNNNDDDRDNLSGDDHEPREGAVEAPTRRPRGRPAGSKNKPKPPIFVTRDSPNALKSHVMEIASGTDVIETLATFARRRQRGICILSGNGTVANVTLRQPSTAAVAAAPGGAAVLALQGRFEILSLTGSFLPGPAPPGSTGLTIYLAGGQGQVVGGSVVGPLMAAGPVMLIAATFSNATYERLPLEEEEAAERGGGGGSGGVVPGQLGGGGSPLSSGAGGGDGNQGLPVYNMPGNLVSNGGSGGGGQMSGQEAYGWAQARSGF

- binding: binds
B3: AHL28 (endogenous) (protein, UniProt Q9M9R4 1-206)
chain: METVGRPRGRPRGSKNKPKAPIFVTIDPPMSPYILEVPSGNDVVEALNRFCRGKAIGFCVLSGSGSVADVTLRQPSPAAPGSTITFHGKFDLLSVSATFLPPLPPTSLSPPVSNFFTVSLAGPQGKVIGGFVAGPLVAAGTVYFVATSFKNPSYHRLPATEEEQRNSAEGEEEGQSPPVSGGGGESMYVGGSDVIWDPNAKAPSPY
